Measurements reported in patent US20060275800A1, “Process for characterization of the transactivation and transrepression activity of glucocorticoid receptor ligands in primary immune cells” (priority 2005, published 2006).
At least one structure is not confirmed: it was looked up by name or label, or the drawing left a doubt.

Test system: transrepression (TNF-α and IL-1β) and transactivation (CD163 and FKBP51)
Assay: Transrepression/transactivation ratio (dissociation factor) in human PBMC cultures
Assay type: cell-based
Conditions: PBMC cultures, 1, 2, 4, 12 and 24 hours
Source text: As parameters that could [make] reference to the mechanism of the transrepression, TNF-α and IL-1β were selected. CD163 and FKBP51 are used to detect the transactivation activity.
Below, a ratio between the transrepression and transactivation parameters that are normalized to prednisolone was derived according to formula 2: [formula]
The factors for the transactivation and transrepression activity were averaged geometrically and put into a ratio with one another. […] The higher the ratio, the more dissociated the GR ligand is in comparison to prednisolone (ratio=1). [drawing]
Figure: Ratios for Visualization of the In Vitro Dissociation of the GR Ligands in Comparison to Prednisolone in PBMC Cultures (n—3) after 1, 2, 4, 12 and 24 Hours.
The ratios were calculated after the normalization of the gene expression values to prednisolone from the quotient of the geometric means of the parameters for transrepression (TNF-α and IL-1β) and for transactivation (CD163 and FKBP51). Mean values±SD.

C[C@@H]1C[C@H]2[C@@H]3CCC4=CC(=O)C=C[C@]4(C)[C@@]3(F)[C@@H](O)C[C@]2(C)[C@@]1(O)C(=O)CO [Dexamethasone, dexamethasone]
dissociation factor (transrepression/transactivation ratio vs prednisolone): largely comparable
